Experimental data: PubChem BioAssay AID1259424 (University of Nebraska Medical Center, 2018)
The whole screen tested about 14,000 reagents; this is a part drawn at random. 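Higher correlation or smaller distance means closer resemblance to KSR1 loss; control wells, including KSR1 knockdowns, recur on many plates.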 Further read-outs or replicates are left out here. Not stated in the record: the time to read-out.

- Purpose: 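Seek colon cancer survival genes behaving like KSR1, using a six-gene signature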 (primary screen)
- System: human HCT116 colon cancer cells
- Reagent: siRNA pool against human genes, 50 nM
- Measured: 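Six signature mRNAs by branched-DNA multiplex assay, scaled to two housekeeping genes and non-targeting median, log2; matched to mean KSR1 knockdown profile by Pearson correlation and euclidean distance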
- Reading the numbers: mean correlation with KSR1 profile: higher = expression change more like KSR1 knockdown

{"Gene":"PALS1","mean correlation with KSR1 profile":-0.146}
{"Gene":"CKAP4","mean correlation with KSR1 profile":-0.563}
{"Gene":"EBF4","mean correlation with KSR1 profile":0.443}
{"Gene":"EXOG","mean correlation with KSR1 profile":0.00599}
{"Gene":"SPINK1","mean correlation with KSR1 profile":0.705}
{"Gene":"BDKRB1","mean correlation with KSR1 profile":0.85}

Not a retest: 2 of the entries above.
{"Gene":"EXOG","mean correlation with KSR1 profile":0.00599}
{"Gene":"SPINK1","mean correlation with KSR1 profile":0.705}

The listing continues.
{"Gene":"WNT16","mean correlation with KSR1 profile":-0.578}
{"Gene":"XPC","mean correlation with KSR1 profile":-0.531}
{"Gene":"CAPN6","mean correlation with KSR1 profile":-0.28}
{"Gene":"PREPL","mean correlation with KSR1 profile":-0.589}
{"Gene":"GINS3","mean correlation with KSR1 profile":0.381}
{"Gene":"SP6","mean correlation with KSR1 profile":0.294}
